Patent publication US11779628B2, “Use of cell-permeable peptide inhibitors of the JNK signal transduction pathway for the treatment of various diseases” (Xigen Inflammation Ltd., priority 2014, dated 2023)
Entries after “also recorded” stand apart in the source; their conditions may differ. Not every detail of the peptide structures is certain; ends, links or a residue may be inferred.

Columns and labels:
[1] = tested on: Hep G2 human hepatocarcinoma tumor; test: Orthotopic HEP G2 human liver carcinoma, dose/response; assay type: in vivo, mice; conditions: for T/C (%) of median survival time: Q4Dx4, versus vehicle; for Detection of tumor masses on liver, microscopic observation after HE staining: individual mice sacrificed at D171
Protocol: The objective of this study was to determine the antitumor activity of XG-102 (dose/response) in the model of SWISS Nude mice bearing the orthotopic Hep G2 human hepatocarcinoma tumor.
For XG-102 administration XG-102 was prepared at the concentration of 1 mg/ml with sterile water (WFI, Aguettant, France). Lt was then cliluted at the concentrations of 0.2 and 0.02 mg/ml with sterile water. All these steps were performed within one hour prior to injection to mice. XG-102 was injected at 0.1, 1 and 5 mg/kg/inj. Four injections were performed, each separated by four days (Q4Dx4).
Twenty four hours before tumor induction, 32 female SWISS Nude mice were irradiated with a γ-source (2.5 Gy, Co^60, INRA, Dijon, France). At D0, Hep G2 tumors were induced orthotopically on 32 female SWISS Nude. Under anesthesia, the animal abdomen was opened through a median incision under aseptic conditions. Ten millions (10^7) Hep G2 tumor cells suspended in 50 μl of RPMI 1640 culture medium were injected in the subcapsular area of the liver. The abdominal cavity was subsequently closed in 2 layers with 5-0 sutures.
At D10, mice were randomized before treatment start according to their body weight to form 4 groups of 8 mice. The body weight of each group was not statistically different from the others (analysis of variance). Mice from group 1 received one IV injection of vehicle at 5 ml/kg/inj. once every four days repeated four times (Q4Dx4), mice from group 2 received one IV injection of XG-102 at 0.1 mg/kg/inj. once every four days repeated four times (Q4Dx4), mice from group 3 received one IV injection of XG-102 at 1 mg/kg/inj. once every four days repeated four times (Q4Dx4), and mice from group 4 received one IV injection of XG-102 at 5 mg/kg/inj. once every four days repeated four times (Q4Dx4):
Mice were monitored every day throughout the study for behaviour and survival. The body weight was monitored twice a week for all mice throughout the study. Isoflurane® Forene (Centravet, Bondoufle, France) was used to anaesthetize the animals before cell injection, IV treatments and sacrifice. During the course of the experiment, animals were killed under anaesthesia with Isoflurane® by cervical dislocation if any of the following occurred: • Signs of suffering (cachexia, weakening, difficulty to move or to eat), • Compound toxicity (hunching, convulsions), • 20% weight loss for 3 consecutive days or 25% body weight loss on any day.
At D67, 3 mice randomly selected per group during randomization were sacrificed for observation of macroscopic development. The remaining mice in each group were kept for survival monitoring. Final sacrifice was performed at D171. Primary tumors and livers were collected and weighed from sacrificed animals. Each liver was fixed in 10% neutral buffered fonnalin. Forty eight (48) hours after collection, they were embedded in paraffin (Histosec®) and used for anapathological analysis. For the estimation of metastatic invasion in mouse liver by histological analysis, paraffin-embedded sections (5 μm) were deparaffinized in xylene and rehydrated by serial incubations in 100%, 95%, and 70% ethanol. All sections were stained with haematoxylin and eosin (HE) (Ref. S3309, Dakocytomation, Trappes, France) for histological analyses. The coverslip was mounted with aqueous mountant (Aquatex, Ref 1.08562, Merck) and sections were viewed under a light microscope (DMRB Leica). Histological sections were analyzed by a pathologist expert to determine the metastatic invasion in liver.
For the body weight analysis body weight curves of mice were drawn. Mean body weight change (MBWC): Average weight change of treated animals in grams (weight at day X minus weight at D10) was calculated.
Efficacy parameters were expressed as a percent (T/C %). T will be the median survival times of animals treated with drugs and C is the median survival times of control animals treated with vehicle. […]

[2] = tested on: Huh7 human liver cancer cells; test: Huh7 human liver cancer xenograft in nude mice; assay type: in vivo; conditions: 5 mg/kg i.p. twice weekly
[3] = tested on: Wistar rats, experimental periodontitis; test: Rat ligature-induced periodontitis model; assay type: in vivo
[4] = tested on: rat islets; test: Rat islet viability after 30 min ischemia; conditions: 100 μM
[5] = tested on: rat islets of Langerhans; test: Dose-response in rat islet isolation after warm ischemia
[6] = tested on: endogenous JNK activity in HepG2 cells; test: AlphaScreen assay of endogenous JNK activity, all-in one well; assay type: cell-based
[7] = tested on: female Sprague-Dawley rats, CYP-induced cystitis; test: CYP-induced acute cystitis, intravenous treatment; assay type: in vivo, rat; conditions: XG-102 2 mg/kg i.v. or ibuprofen 10 mg/kg i.v., 24 h post-CYP
Protocol: This preclinical model is well-used to test therapeutic approaches for the treatment of interstitial cystitis/painful bladder syndrome (IC/PBS).
Animals were acclimatized to the laboratory conditions for at least 3 days before the start of any experiments. The animals were allocated to the following four experimental groups (n=10 animals per group):
To induce acute cystitis, a single i.p. injection of CYP at a dose of 150 mg/kg in a final volume of 5 mL/kg was performed. Control rats received physiological saline under the same experimental conditions as CYP (final volume of 5 mL/kg, i.p.).
On the day of each experiment, weight of rats was recorded.
Standardized conditions including fixed time-of-day (a.m. to minimize the potential circadian variations in the behaviours responses) and single-experimenter testing of all animals were applied to minimize variability behavior-based pain testing. Visceral pain including allodynia and hyperalgesia was evaluated by applying to the lower abdomen, close to the urinary bladder, a set of 8 calibrated von Frey filaments of increasing forces (1, 2, 4, 6, 8, 10, 26 and 60 g) with an interstimulus interval of 5 seconds. Prior testing, the abdominal area designed for mechanical stimulation of each animal was shaved. Animals were then placed on a raised wire mesh floor under individual transparent Plexiglas box and acclimatized for at least 30 minutes before starting the von Frey test. Filaments were then applied 1-2 seconds through the mesh floor with enough strength to cause the filament to slightly bend. Each filament was tested 3 times. Care was taken to stimulate different areas within the lower abdominal region in the vicinity of the urinary bladder to avoid desensitization.

CC(C)C[C@@H](NC(=O)[C@@H](Cc1ccccc1)NC(=O)[C@H]1CCCN1C(=O)[C@@H](CCC(N)=O)NC(=O)[C@H](NC(=O)[C@H]1CCCN1C(=O)[C@@H](CCCNC(=N)N)NC(=O)[C@@H](CO)NC(=O)[C@@H](CCC(N)=O)NC(=O)[C@H](N)CC(=O)O)C(C)C)C(=O)N[C@H](CC(N)=O)C(=O)N[C@H](CC(C)C)C(=O)N[C@@H](C(=O)N[C@@H](C(=O)N1CCC[C@@H]1C(=O)N[C@H](CCCNC(=N)N)C(=O)N[C@H](CCCCN)C(=O)N1CCC[C@@H]1C(=O)N[C@H](CCCNC(=N)N)C(=O)N1CCC[C@@H]1C(=O)N1CCC[C@@H]1C(=O)N[C@H](CCCNC(=N)N)C(=O)N[C@H](CCCNC(=N)N)C(=O)N[C@H](CCCNC(=N)N)C(=O)N[C@H](CCC(N)=O)C(=O)N[C@H](CCCNC(=N)N)C(=O)N[C@H](CCCNC(=N)N)C(=O)N[C@H](CCCCN)C(=O)N[C@H](CCCCN)C(=O)N[C@H](CCCNC(=N)N)C(=O)NCC(=O)O)[C@H](C)O)[C@H](C)O [XG-102]
T/C (%) of median survival time ([1]; XG-102 0.1 mg/kg IV): 123%
Detection of tumor masses on liver, microscopic observation after HE staining ([1]; XG-102 0.1 mg/kg, 0.1 mg/kg): Tumor (1.3 cm) on liver; also recorded: No tumor detected
T/C (%) of median survival time ([1]; XG-102 1 mg/kg IV): 161%
Detection of tumor masses on liver, microscopic observation after HE staining ([1]; XG-102 1 mg/kg, 1 mg/kg): No tumor detected; also recorded: Tumor (1.9 cm) on liver
T/C (%) of median survival time ([1]; XG-102 5 mg/kg IV): 137%
Detection of tumor masses on liver, microscopic observation after HE staining ([1]; XG-102 5 mg/kg): No tumor detected
tumor growth [2]: markedly reduced tumor growth at a dose of 5 mg/kg
gingival inflammation (GI) ([3]; 1 mg/kg IGV day 10, day 17): robustly decreased GI level
total bacterial flora ([3]; day 17 vs day 10): had diminished significantly (p<0.05) the total bacterial flora at day 17 compared to day 10
IL1-β expression (ELISA) ([3]; gingival tissue, day 17): reduced significantly IL1-expression compared to placebo group
islet viability (apoptosis and necrosis) [4]: decreases apoptosis and necrosis
JNK and PAF2 phosphorylation (western blot) ([5]; 15-min ischemia): dose-dependently decreased JNK (FIG. 56 A) and PAF2 (FIG. 56 B) phosphorylation induced by 15-min ischemia
islet function (static insulin secretion) after culture ([5]; 15 min ischemia): had no impact on islet function in this experiment
glucose-induced insulin secretion ([5]; 30 min ischemia, 100 microM): glucose-induced insulin secretion was higher as compared to ischemic rats
inhibition of IL-1 dependent JNK activity [6]: effectively inhibits JNK activity, even better than L-TAT-IB1(s)
AUC 1-8 g (allodynia) [7]: AUC 1-8 g was significantly decreased by XG-102 treatment
AUC 8-60 g (hyperalgesia) [7]: AUC 8-60 g was significantly reduced by XG-102 treatment
nociceptive scores [7]: significantly decreased nociceptive scores
nociceptive threshold [7]: nociceptive threshold was significantly increased by XG-102 treatment
